Values joined by “and” are separate entries in the source; they are usually repeats but may differ in a detail not shown here. Identical values can stand only once.
How the values were obtained:
[1] = in vitro CEDST spectra of candidate contrast agents (proton chemical exchange with water), 7T
[2] = ratiometric CEDST analysis of two exchange sites versus pH; assay type: physicochemical; details: 62.5 mM, Site 1: 2.67 ppm, Site 2: 5.00 ppm
[3] = 125 mM, 37° C., 20 mM phosphate buffer, site (ppm) of the same table row
[4] = 62.5 mM, 37° C., 20 mM phosphate buffer, site (ppm) of the same table row
[5] = 62.5 mM, 0-30 mM pH 6 phosphate buffer

NC(=O)CC[C@H](N)C(=O)O [L-Glutamine]
pH where the greatest proton chemical exchange effect was noted [1, 3]: 5.2

NCCCC[C@H](N)C(=O)O [L-Lysine]
pH where the greatest proton chemical exchange effect was noted [1, 3]: 4.0

O=C(O)C1CCCCN1 (stereo not shown) [Pipecolinic Acid]
pH where the greatest proton chemical exchange effect was noted [1, 4]: 5.0

O=C1NC(=O)C(=O)N1 [Parabanic Acid]
pH where the greatest proton chemical exchange effect was noted [1, 4]: 7.0 and 8.0

O=C1CC(=O)NC(=S)N1 [2-Thio-Barbituric Acid]
pH of exchange optimum / peak ST effect ([1]; 62.5 mM, 37° C.): 4.0
pH where the greatest proton chemical exchange effect was noted [1, 4]: 5.0

CCC1(CC)C(=O)NC(=O)NC1=O [Barbital (5,5-Diethyl-Barbituric Acid), 5,5-Diethyl-Barbituric Acid]
pH where the greatest proton chemical exchange effect was noted [1, 4]: 4.0

C[C@H](N)C(=O)O [L-Alanine]
pH where the greatest proton chemical exchange effect was noted [1, 3]: 4.0

O=C1CCNC(=O)N1 [5,6 Dihydrouracil]
effect of phosphate concentration on the site at 2.67 ppm [1, 5]: significantly affected by changes in phosphate concentration
effect of phosphate concentration on the site at 5.00 ppm [1, 5]: substantially unaffected by changes in phosphate concentration
pH where the greatest proton chemical exchange effect was noted [1, 4]: 6.0 and 7.0
pH at which the exchange site at 2.67 ppm optimizes ([1]; 62.5 mM, 37° C., 2.67 ppm site): 7
pH at which the exchange site at 5.0 ppm optimizes ([1]; 62.5 mM, 37° C., 5.0 ppm site): 6
pH region in which the agent is effective (ratiometric standard curve) [2]: ~6.5

O=C(O)C1CCN1 (stereo not shown) [Azetidine-2-Carboxylic Acid]
pH where the greatest proton chemical exchange effect was noted [1, 4]: 5.0

O=C1CNC(=O)N1 [Hydantoin]
pH where the greatest proton chemical exchange effect was noted [1, 4]: 4.0 and 6.0

N[C@@H](Cc1c[nH]c2ccc(O)cc12)C(=O)O [5-Hydroxy-Tryptophan]
pH where the greatest proton chemical exchange effect was noted [1, 4]: 4.0 and 8.0
pH of minimum Ms value ([1]; 5.33 ppm site (first of 'respectively')): 4
pH range over which exchange rates were suitable ([1]; indole ring —NH): 7.0-8.0

O=C1CC(=O)NC(=O)N1 [Barbituric Acid]
pH of exchange optimum / peak ST effect ([1]; 62.5 mM, 37° C.): ~6.5
pH where the greatest proton chemical exchange effect was noted [1, 4]: 6.5
saturation power level (B1) at which the ST effect optimizes ([1]; 125 mM, pH 7.0, 37° C. (FIG. 5)): about 16 ×10^−7 T

Cc1cn([C@H]2C[C@H](O)[C@@H](CO)O2)c(=O)[nH]c1=O [Thymidine]
pH where the greatest proton chemical exchange effect was noted ([1]; 125 mM, 3-NH, 37° C., 2 mM phosphate buffer): 5.0

N[C@@H](Cc1c[nH]c2ccccc12)C(=O)O [L-Tryptophan]
pH where the greatest proton chemical exchange effect was noted ([1]; 35 mM, —NH2, 37° C., 20 mM phosphate buffer): 6.5

O=C1NCCN1 [2-Imidazolidone]
pH where the greatest proton chemical exchange effect was noted ([1]; imidazole derivatives, ring protons (—NH), concentration not given, 37° C., 20 mM phosphate buffer): 5.0 and 8.0

— US6963769B1, “Method for enhancing contrast produced by MRI” (The United States of America as represented by the …, priority 1999, dated 2005)
